These are yes or no findings as the source states them, for the method shown. In cells and extracts the contact can be indirect. Some entries that bind do so weakly or less than the wild type.

The chains behind the UniProt entries cited, without tags or fusion partners.
UniProt P49815: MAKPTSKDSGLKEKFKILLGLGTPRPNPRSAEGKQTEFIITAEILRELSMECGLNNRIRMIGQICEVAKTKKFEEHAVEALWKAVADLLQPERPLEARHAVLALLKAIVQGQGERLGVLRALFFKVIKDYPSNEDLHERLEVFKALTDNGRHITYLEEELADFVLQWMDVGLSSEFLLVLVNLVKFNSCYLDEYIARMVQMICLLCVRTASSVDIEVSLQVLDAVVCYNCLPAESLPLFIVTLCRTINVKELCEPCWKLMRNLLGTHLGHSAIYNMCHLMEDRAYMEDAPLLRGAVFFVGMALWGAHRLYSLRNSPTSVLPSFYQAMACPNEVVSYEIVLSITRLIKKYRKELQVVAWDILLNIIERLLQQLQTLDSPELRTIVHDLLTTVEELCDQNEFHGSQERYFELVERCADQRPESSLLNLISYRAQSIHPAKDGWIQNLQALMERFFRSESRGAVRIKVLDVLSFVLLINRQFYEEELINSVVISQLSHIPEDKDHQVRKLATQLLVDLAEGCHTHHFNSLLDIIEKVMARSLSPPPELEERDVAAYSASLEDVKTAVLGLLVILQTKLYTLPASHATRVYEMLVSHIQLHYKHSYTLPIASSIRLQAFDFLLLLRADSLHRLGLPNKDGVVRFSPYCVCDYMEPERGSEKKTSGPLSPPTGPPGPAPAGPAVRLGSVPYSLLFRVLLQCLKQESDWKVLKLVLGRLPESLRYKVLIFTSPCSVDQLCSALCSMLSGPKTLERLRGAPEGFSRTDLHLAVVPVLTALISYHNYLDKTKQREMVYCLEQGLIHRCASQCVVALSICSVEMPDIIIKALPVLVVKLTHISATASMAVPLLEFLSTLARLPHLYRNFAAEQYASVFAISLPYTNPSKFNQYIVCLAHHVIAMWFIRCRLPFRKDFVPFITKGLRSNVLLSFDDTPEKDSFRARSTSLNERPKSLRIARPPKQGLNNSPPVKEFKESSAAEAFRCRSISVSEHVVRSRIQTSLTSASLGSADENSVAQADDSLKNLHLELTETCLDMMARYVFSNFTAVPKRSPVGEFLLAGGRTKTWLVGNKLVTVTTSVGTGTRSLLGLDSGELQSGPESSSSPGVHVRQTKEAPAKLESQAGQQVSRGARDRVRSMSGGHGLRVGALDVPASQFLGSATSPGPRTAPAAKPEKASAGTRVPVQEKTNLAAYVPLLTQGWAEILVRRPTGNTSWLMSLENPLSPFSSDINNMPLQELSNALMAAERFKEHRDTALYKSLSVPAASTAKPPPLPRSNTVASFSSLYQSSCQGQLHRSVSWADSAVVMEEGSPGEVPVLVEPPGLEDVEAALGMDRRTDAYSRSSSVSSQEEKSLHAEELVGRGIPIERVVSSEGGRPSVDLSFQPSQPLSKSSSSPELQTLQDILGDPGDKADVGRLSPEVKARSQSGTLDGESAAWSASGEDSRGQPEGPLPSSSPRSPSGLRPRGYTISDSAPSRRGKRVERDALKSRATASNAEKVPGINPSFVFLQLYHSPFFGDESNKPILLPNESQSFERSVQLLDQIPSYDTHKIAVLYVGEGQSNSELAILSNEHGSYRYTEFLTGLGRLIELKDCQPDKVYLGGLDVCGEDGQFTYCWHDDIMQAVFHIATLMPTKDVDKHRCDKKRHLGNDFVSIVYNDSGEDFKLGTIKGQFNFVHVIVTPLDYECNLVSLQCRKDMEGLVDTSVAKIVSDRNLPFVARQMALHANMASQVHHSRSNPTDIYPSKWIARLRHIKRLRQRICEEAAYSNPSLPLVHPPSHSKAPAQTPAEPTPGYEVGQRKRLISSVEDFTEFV

These results are taken from paper PMC5219700.

The target in the assay is tuberous sclerosis complex 2 (human (endogenous in Rh30)) (UniProt P49815). The assay is described as follows: co-IP; serum-starved Rh30 cells exposed to CPT for 2 h, then IGF-1 (10 ng/mL) for 1 h; lysed in cold NP40 lysis buffer; rabbit anti-TSC2 antibody plus protein A/G agarose overnight at 4 C; four washes with NP40 lysis buffer; western blot for TSC1. For orientation: Immunoblotting shows a protein as a band on a membrane.

B1: TSC1 (protein, UniProt Q92574 1-1164)
chain: MAQQANVGELLAMLDSPMLGVRDDVTAVFKENLNSDRGPMLVNTLVDYYLETSSQPALHILTTLQEPHDKHLLDRINEYVGKAATRLSILSLLGHVIRLQPSWKHKLSQAPLLPSLLKCLKMDTDVVVLTTGVLVLITMLPMIPQSGKQHLLDFFDIFGRLSSWCLKKPGHVAEVYLVHLHASVYALFHRLYGMYPCNFVSFLRSHYSMKENLETFEEVVKPMMEHVRIHPELVTGSKDHELDPRRWKRLETHDVVIECAKISLDPTEASYEDGYSVSHQISARFPHRSADVTTSPYADTQNSYGCATSTPYSTSRLMLLNMPGQLPQTLSSPSTRLITEPPQATLWSPSMVCGMTTPPTSPGNVPPDLSHPYSKVFGTTAGGKGTPLGTPATSPPPAPLCHSDDYVHISLPQATVTPPRKEERMDSARPCLHRQHHLLNDRGSEEPPGSKGSVTLSDLPGFLGDLASEEDSIEKDKEEAAISRELSEITTAEAEPVVPRGGFDSPFYRDSLPGSQRKTHSAASSSQGASVNPEPLHSSLDKLGPDTPKQAFTPIDLPCGSADESPAGDRECQTSLETSIFTPSPCKIPPPTRVGFGSGQPPPYDHLFEVALPKTAHHFVIRKTEELLKKAKGNTEEDGVPSTSPMEVLDRLIQQGADAHSKELNKLPLPSKSVDWTHFGGSPPSDEIRTLRDQLLLLHNQLLYERFKRQQHALRNRRLLRKVIKAAALEEHNAAMKDQLKLQEKDIQMWKVSLQKEQARYNQLQEQRDTMVTKLHSQIRQLQHDREEFYNQSQELQTKLEDCRNMIAELRIELKKANNKVCHTELLLSQVSQKLSNSESVQQQMEFLNRQLLVLGEVNELYLEQLQNKHSDTTKEVEMMKAAYRKELEKNRSHVLQQTQRLDTSQKRILELESHLAKKDHLLLEQKKYLEDVKLQARGQLQAAESRYEAQKRITQVFELEILDLYGRLEKDGLLKKLEEEKAEAAEAAEERLDCCNDGCSDSMVGHNEEASGHNGETKTPRPSSARGSSGSRGGGGSSSSSSELSTPEKPPHQRAGPFSSRWETTMGEASASIPTTVGSLPSSKSFLGMKARELFRNKSESQCDEDGMTSSLSESLKTELGKDLGVEAKIPLNLDGPHPSPPTPDSVGQLHIMDYNETHHEHS
In the case of B1, the binding entry is listed as “binds”.
